Measurements taken from paper PMC1514790, “Tomosyn Inhibits Synaptic Vesicle Priming in Caenorhabditis elegans” (PLoS Biology, 2006).

Target: Rat His6-tagged syntaxin (rat)
Experiment: SDS-resistant complex assembly seen on PAGE; purified His6-tagged syntaxin, SNAP-25 and synaptobrevin of C. elegans or rat mixed in various combinations, overnight at 4 °C, SDS sample buffer, unheated or heated to 95 °C, 4%-12% PAGE, Coomassie Blue; both purified

Row | Binder | binding
1 | C. elegans SNAP-25-His6 (RIC-4) (protein, UniProt O62414 1-207) MSGDDDIPEGLEAINLKMNATTDDSLESTRRMLALCEESKEAGIKTLVMLDDQGEQLERCEGALDTINQDMKEAEDHLKGMEKCCGLCVLPWNKTDDFEKTEFAKAWKKDDDGGVISDQPRITVGDSSMGPQGGYITKITNDAREDEMDENVQQVSTMVGNLRNMAIDMSTEVSNQNRQLDRIHDKAQSNEVRVESANKRAKNLITK | binds weakly
2 | C. elegans synaptobrevin SNB-1 cytoplasmic domain (aa 1-88), His6T7-tagged (domain or fragment, UniProt O02495 1-88, looked up, C. elegans synaptobrevin (SNB-1), cytoplasmic domain aa 1-88, lacking the TM domain, cloned into pRSETC; also called His6T7-tagged SNB-1; His6-SNB-1; source: recombinant, purified (Ni-NTA agarose)) MDAQGDAGAQGGSQGGPRPSNKRLQQTQAQVDEVVGIMKVNVEKVLERDQKLSQLDDRADALQEGASQFEKSAATLKRKYWWKNIKMM | binds

Results are given in words; binding and its absence hold for the method and conditions named. Binding calls can cover weak binding; strength is not graded here. Tags and fused reporters may be left off the sequences shown.
